Values quoted from earlier work as cited in patent publication US10602758B2, “Methods and compositions for improved taste quality” (Almendra Pte. Ltd, priority 2018, dated 2020).
At least one compound was matched to its structure with a doubt left.

Settings: R in Sucrose Equivalents of Sweetness; C in % (w/v) for sugars, in mg/L for HP sweeteners; cited from earlier work

For `C=C1C[C@@]23CC[C@H]4[C@@](C)(CCC[C@@]4(C)C(=O)O[C@@H]4O[C@H](CO)[C@@H](O)[C@H](O)[C@H]4O)[C@@H]2CC[C@]1(O[C@@H]1O[C@H](CO)[C@@H](O)[C@H](O[C@@H]2O[C@H](CO)[C@@H](O)[C@H](O)[C@H]2O)[C@H]1O[C@@H]1O[C@H](CO)[C@@H](O)[C@H](O)[C@H]1O)C3` [Rebaudioside A], the “C/R Function” value is given as “R = 10C/(200 + C)”.
